These are yes or no findings as the source states them, for the method shown. Binding seen in cells or lysates may run through a third protein. A yes stands for co-enrichment or nearness to the bait. Other partners may have been found. For part of these data: A no says only that the protein was not detected with the bait.
Assays:
[1] = target: Chd4 (chromatin helicase DNA binding protein 4) (mouse (endogenous in heart)), Q6PDQ2; test: affinity purification with mass spectrometry; Chd4 immunoprecipitated with mouse monoclonal anti-Chd4 (ab70469) from nuclear extracts of 4-week-old WT mouse hearts; Chd4 cKO (Chd4corin) hearts as control; in-gel trypsin digestion, LC-MS/MS; conditions: remark: other sources report otherwise
[2] = target: Chd4 (chromatin helicase DNA binding protein 4) (mouse (endogenous in heart)) (UniProt Q6PDQ2); test: as above

By UniProt entry, the sequences of proteins in these tests, tags left out.
UniProt Q6PDQ2: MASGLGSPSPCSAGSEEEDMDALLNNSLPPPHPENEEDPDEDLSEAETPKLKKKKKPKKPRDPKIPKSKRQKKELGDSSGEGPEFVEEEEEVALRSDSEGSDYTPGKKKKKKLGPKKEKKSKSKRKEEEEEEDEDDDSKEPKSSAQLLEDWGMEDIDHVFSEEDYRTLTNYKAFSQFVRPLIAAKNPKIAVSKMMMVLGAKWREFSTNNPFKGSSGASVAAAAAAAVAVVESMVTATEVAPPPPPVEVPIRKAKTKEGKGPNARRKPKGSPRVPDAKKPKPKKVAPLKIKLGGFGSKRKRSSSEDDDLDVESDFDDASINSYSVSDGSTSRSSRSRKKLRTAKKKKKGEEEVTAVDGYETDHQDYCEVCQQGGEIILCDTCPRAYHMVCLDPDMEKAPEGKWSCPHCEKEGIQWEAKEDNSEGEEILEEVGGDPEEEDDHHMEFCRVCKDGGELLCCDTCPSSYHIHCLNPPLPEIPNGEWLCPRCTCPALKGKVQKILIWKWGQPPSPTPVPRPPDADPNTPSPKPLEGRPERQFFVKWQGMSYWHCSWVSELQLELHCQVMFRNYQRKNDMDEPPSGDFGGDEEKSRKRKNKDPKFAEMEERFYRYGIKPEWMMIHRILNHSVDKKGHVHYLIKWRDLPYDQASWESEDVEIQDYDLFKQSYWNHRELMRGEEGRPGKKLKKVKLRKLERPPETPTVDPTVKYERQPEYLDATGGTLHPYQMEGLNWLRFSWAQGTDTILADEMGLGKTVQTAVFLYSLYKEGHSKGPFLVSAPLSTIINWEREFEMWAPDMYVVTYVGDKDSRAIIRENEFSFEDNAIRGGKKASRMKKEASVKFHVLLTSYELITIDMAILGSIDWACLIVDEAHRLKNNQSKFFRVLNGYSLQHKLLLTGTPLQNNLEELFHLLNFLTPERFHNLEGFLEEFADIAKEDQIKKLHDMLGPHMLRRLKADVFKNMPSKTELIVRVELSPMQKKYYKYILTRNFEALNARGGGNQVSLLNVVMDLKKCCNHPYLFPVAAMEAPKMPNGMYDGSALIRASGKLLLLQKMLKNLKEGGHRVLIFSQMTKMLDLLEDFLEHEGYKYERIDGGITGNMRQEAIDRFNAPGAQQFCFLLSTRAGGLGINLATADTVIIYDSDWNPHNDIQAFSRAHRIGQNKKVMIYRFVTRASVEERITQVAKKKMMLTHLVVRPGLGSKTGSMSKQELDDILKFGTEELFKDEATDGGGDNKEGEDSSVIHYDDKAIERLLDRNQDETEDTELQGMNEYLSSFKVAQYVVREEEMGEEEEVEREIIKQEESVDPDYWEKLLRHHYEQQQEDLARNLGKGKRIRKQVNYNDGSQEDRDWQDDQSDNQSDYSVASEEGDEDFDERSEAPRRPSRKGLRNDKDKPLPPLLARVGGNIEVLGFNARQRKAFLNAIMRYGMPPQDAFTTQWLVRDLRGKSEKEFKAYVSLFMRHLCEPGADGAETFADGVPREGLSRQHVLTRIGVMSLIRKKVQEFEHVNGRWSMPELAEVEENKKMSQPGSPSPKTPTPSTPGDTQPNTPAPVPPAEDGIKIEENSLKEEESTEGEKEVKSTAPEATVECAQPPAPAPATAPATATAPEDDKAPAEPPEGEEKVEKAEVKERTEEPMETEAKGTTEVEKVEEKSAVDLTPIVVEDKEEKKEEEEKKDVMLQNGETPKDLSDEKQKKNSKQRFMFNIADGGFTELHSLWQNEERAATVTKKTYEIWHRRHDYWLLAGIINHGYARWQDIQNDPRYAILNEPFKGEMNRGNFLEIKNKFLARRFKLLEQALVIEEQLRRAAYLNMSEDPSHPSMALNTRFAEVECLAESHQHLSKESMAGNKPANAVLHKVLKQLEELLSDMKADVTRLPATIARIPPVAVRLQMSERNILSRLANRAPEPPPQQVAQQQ

Row | binding [1] | binding [2] | Binder
1 | no binding |  | Tbx5, P70326 1-518 (protein) MADTDEGFGLARTPLEPDSKDRSCDSKPESALGAPSKSPSSPQAAFTQQGMEGIKVFLHERELWLKFHEVGTEMIITKAGRRMFPSYKVKVTGLNPKTKYILLMDIVPADDHRYKFADNKWSVTGKAEPAMPGRLYVHPDSPATGAHWMRQLVSFQKLKLTNNHLDPFGHIILNSMHKYQPRLHIVKADENNGFGSKNTAFCTHVFPETAFIAVTSYQNHKITQLKIENNPFAKGFRGSDDLELHRMSRMQSKEYPVVPRSTVRHKVTSNHSPFSSETRALSTSSNLGSQYQCENGVSGPSQDLLPPPNPYPLAQEHSQIYHCTKRKDEECSSTEHPYKKPYMETSPSEEDTFYRSGYPQQQGLSTSYRTESAQRQACMYASSAPPSEPVPSLEDISCNTWPSMPSYSSCTVTTVQPMDRLPYQHFSAHFTSGPLVPRLAGMANHGSPQLGEGMFQHQTSVAHQPVVRQCGPQTGLQSPGGLQPPEFLYTHGVPRTLSPHQYHSVHGVGMVPEWSENS
2 |  | binds | Znf219 (protein, UniProt Q6IQX8 1-726) MEGSRPRILVGHLEPSPPAFDGELDLQRYSNGPGVSGTPGPGSPGMGAVGWSETRAGERRFPCPVCGKRFRFNSILALHLRAHPGAQAFQCPHCGHRAAQRALLRSHLRTHQPERPRSPAARLLLELEERALLREARLGRARSSGGMQSSPAAEGLARPQVPSSSAFRCPFCKGKFRTSAERERHLHILHRPWKCSLCSFGSSQEEELLHHSLTAHGASERPLAATSTPEPPPPPQQEPRSALEPEPEPEPRPEPDREANPAPTPAPPEEPPAPPEFRCQVCGQSFTQSWFLKGHMRKHKASFDHACPVCGRCFKEPWFLKNHMKVHTSKLGPLRAPGPGSAPARAPQPPDLSLLAYEPLGPALLLAPAPAPAERREPPSLLGYLSVRAGEVRPNGEGADPGGGRSYGGFRPLPSALPNRARRHRTEEPEEEEEVVEAEEESWARGRSLGSLTSLHPNPGEGSGQPAPAAGTQARSTATQEENGLLVGGTRSEAGRGATGKDCPFCGKSFRSAHHLKVHLRVHTGERPYKCPHCDYAGTQSGSLKYHLQRHHREQRSSAGPGPPPEPPPPSQRGSLQPQSGAKPTQASATWVEGTASTRPPSSSTGPGSRRKPASPGRTLRNGRGGEAEPLDLSLRAGPGGEAGAGGALHRCLFCPFATGAPELMALHLQVHHSRRARGRRQPRADTSPTYVRAPSGETPPSPPLEEEGSPGLSRSGEAGLGGQER
3 |  | binds | Zbtb20 (protein, UniProt Q8K0L9 1-741) MLERKKPKTAENQKASEENEITQPGGSSAKPALPCLNFEAVLSPAPALIHSTHSLTNSHAHTGSSDCDISCKGMTERIHSINLHNFSNSVLETLNEQRNRGHFCDVTVRIHGSMLRAHRCVLAAGSPFFQDKLLLGYSDIEIPSVVSVQSVQKLIDFMYSGVLRVSQSEALQILTAASILQIKTVIDECTRIVSQNVGDVFPGIQDSGQDTPRGTPESGTSGQSSDTESGYLQSHPQHSVDRIYSALYACSMQNGSGERSFYSGAVVSHHETALGLPRDHHMEDPSWITRIHERSQQMERYLSTTPETTHCRKQPRPVRIQTLVGNIHIKQEMEDDYDYYGQQRVQILERNESEECTEDTDQAEGTESEPKGESFDSGVSSSIGTEPDSVEQQFGAAAPRDGQAEPAQPEQAAEAPAESSAQPNQLEPGASSPERSNESEMDNTVITVSNSSDKGVLQQPSVNTSIGQPLPSTQLYLRQTETLTSNLRMPLTLTSNTQVIGTAGNTYLPALFTTQPAGSGPKPFLFSLPQPLTGQQTQFVTVSQPGLSTFTAQLPAPQPLASSAGHSTASGQGDKKPYECTLCNKTFTAKQNYVKHMFVHTGEKPHQCSICWRSFSLKDYLIKHMVTHTGVRAYQCSICNKRFTQKSSLNVHMRLHRGEKSYECYICKKKFSHKTLLERHVALHSASNGTPPAGTPPGARAGPPGVVACTEGTTYVCSVCPAKFDQIEQFNDHMRMHVSDG

— PMC9455175
